PMC6886185
No constants are given. Whether binding was seen depends on the method and setting. In cells and extracts the contact can be indirect. A yes stands for co-enrichment or nearness to the bait. Other partners may have been found.

Amino acid sequences for entries named in this document (tags omitted).
UniProt Q14240: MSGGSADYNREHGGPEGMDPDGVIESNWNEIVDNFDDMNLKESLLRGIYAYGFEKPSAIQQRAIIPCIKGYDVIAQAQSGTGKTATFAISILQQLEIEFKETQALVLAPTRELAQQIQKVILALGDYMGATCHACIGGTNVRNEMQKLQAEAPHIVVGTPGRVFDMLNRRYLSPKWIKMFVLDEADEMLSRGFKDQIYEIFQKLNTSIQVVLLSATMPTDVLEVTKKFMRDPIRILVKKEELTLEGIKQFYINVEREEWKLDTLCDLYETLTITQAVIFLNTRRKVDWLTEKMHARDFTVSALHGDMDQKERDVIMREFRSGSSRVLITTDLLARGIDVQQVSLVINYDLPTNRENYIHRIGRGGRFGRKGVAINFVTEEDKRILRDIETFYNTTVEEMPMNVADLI
UniProt A5YKK6: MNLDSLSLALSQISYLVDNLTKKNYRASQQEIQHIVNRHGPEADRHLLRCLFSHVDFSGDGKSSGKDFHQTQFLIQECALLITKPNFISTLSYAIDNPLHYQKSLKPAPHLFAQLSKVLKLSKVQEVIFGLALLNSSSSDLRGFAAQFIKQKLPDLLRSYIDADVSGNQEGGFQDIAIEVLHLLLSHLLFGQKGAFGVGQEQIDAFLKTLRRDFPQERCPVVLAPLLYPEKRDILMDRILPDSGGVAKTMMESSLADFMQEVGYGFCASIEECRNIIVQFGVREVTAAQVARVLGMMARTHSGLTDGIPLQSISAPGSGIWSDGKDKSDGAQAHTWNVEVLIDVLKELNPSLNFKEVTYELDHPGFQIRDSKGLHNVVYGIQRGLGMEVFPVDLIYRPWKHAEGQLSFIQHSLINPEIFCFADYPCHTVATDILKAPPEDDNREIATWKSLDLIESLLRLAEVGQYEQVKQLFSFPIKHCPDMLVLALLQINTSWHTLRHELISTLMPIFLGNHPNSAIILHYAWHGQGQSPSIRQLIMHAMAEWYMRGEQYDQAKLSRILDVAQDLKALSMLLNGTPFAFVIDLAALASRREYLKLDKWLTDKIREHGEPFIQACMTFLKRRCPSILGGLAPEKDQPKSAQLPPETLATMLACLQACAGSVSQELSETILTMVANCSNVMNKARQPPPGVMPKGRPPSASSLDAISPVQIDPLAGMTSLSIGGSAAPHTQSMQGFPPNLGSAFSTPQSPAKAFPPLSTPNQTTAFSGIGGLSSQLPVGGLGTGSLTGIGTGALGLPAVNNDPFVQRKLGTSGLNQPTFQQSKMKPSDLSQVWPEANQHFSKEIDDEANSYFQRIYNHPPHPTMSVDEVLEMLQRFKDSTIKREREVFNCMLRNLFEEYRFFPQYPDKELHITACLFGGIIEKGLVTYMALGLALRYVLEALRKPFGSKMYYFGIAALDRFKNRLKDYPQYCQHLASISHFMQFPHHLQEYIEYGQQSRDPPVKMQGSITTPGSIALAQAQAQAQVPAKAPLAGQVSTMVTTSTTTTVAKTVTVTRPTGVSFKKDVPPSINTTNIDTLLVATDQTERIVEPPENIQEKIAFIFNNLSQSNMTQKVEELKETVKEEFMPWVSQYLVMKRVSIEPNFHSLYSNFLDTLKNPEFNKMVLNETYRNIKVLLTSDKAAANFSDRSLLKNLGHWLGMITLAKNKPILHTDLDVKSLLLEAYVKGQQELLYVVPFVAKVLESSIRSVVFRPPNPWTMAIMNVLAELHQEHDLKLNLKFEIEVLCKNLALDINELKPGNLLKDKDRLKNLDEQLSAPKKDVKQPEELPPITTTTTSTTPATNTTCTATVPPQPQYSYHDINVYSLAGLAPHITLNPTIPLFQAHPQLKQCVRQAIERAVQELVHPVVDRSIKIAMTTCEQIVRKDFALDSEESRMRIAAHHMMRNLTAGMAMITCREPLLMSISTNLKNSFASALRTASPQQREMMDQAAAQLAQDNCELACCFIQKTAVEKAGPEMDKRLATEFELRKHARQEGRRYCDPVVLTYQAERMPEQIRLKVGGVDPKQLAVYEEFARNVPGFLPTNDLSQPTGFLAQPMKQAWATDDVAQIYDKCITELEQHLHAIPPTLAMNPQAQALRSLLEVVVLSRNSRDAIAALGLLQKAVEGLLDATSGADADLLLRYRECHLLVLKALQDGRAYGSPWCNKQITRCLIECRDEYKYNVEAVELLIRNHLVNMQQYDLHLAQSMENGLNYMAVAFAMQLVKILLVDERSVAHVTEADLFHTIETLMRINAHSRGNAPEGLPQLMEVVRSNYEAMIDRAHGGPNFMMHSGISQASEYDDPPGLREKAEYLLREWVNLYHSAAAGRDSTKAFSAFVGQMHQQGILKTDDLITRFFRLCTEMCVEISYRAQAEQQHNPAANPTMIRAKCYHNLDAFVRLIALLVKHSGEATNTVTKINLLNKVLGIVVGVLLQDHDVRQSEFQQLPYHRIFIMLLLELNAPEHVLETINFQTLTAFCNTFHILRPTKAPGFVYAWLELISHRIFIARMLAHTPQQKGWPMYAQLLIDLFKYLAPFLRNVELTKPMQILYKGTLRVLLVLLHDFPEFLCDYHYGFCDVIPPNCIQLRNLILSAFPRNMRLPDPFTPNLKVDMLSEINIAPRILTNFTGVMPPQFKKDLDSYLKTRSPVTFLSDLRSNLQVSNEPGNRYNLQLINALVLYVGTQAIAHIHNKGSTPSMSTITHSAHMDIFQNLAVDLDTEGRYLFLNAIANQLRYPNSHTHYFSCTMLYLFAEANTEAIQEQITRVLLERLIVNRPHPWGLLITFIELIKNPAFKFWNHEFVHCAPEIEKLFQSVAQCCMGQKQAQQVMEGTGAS
UniProt Q9UIV1: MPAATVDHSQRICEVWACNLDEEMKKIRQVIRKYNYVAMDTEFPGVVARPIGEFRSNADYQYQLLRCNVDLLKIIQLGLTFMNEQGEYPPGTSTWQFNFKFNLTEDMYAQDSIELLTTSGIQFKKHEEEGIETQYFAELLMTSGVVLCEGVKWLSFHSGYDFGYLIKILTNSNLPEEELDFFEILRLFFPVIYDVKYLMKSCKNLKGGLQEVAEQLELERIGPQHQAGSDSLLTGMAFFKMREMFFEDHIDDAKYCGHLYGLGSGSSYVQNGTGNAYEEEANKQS
UniProt Q9C0C2: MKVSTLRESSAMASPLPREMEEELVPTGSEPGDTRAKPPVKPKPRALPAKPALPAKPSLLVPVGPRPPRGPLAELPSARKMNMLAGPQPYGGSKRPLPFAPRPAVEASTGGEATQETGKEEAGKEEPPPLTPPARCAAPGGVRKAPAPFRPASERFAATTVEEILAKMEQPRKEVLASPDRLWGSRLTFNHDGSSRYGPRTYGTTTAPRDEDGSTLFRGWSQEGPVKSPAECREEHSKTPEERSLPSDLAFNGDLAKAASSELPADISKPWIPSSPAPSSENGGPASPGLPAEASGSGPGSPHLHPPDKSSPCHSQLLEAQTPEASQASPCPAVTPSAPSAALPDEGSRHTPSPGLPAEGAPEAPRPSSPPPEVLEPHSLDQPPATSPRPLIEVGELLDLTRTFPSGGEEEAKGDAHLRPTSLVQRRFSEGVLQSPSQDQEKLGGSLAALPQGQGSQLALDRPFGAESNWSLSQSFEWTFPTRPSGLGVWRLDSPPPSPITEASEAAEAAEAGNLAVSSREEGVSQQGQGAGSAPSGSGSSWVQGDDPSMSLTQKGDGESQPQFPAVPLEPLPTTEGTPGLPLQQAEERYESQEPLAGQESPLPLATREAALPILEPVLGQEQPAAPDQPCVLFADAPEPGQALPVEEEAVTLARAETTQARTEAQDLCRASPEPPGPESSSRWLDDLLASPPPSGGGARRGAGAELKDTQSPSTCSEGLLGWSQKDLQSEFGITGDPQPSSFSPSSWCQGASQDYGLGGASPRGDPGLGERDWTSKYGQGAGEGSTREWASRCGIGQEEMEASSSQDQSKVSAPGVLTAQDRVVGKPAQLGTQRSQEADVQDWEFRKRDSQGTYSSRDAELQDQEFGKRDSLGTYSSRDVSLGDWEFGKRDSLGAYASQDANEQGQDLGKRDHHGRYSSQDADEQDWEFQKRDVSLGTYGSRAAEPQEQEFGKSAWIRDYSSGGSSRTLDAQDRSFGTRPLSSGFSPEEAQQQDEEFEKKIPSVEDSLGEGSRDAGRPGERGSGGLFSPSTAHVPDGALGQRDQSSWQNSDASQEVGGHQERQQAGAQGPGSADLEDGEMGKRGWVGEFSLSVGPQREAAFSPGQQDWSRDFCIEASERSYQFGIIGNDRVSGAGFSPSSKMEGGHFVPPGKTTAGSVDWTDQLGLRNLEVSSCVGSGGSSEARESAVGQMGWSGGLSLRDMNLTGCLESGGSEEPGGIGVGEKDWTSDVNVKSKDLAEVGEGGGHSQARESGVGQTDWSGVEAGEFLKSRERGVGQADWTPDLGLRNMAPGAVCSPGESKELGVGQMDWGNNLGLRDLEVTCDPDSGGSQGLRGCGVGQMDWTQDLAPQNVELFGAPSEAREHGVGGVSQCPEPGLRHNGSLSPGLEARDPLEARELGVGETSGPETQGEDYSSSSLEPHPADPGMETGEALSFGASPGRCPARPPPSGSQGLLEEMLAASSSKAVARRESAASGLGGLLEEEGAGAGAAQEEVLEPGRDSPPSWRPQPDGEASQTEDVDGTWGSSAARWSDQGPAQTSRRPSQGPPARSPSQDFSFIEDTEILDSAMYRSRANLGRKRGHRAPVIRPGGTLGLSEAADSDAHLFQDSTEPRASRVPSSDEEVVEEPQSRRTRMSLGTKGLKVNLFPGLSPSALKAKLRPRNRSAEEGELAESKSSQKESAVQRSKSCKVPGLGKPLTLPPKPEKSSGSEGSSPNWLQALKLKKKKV
UniProt Q13049: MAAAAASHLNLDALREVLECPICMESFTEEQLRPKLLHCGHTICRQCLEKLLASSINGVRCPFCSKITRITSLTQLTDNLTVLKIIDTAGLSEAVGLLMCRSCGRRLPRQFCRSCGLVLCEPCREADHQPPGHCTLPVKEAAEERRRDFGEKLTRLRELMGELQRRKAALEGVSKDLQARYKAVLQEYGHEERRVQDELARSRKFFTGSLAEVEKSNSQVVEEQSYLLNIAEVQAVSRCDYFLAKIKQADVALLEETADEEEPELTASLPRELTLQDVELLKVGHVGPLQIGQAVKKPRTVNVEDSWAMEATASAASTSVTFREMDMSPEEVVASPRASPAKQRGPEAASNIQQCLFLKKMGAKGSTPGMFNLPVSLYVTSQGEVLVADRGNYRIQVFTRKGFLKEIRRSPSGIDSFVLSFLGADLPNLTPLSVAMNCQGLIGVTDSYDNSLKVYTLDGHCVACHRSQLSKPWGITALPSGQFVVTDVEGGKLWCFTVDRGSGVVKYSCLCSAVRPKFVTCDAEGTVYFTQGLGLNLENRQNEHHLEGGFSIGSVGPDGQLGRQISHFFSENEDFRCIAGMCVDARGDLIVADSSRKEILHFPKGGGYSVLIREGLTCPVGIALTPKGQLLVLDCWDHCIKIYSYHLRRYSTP

The substances below were run against eIF4A2 (endogenous) (human (endogenous in HeLa)) (UniProt Q14240) (assay: affinity purification with mass spectrometry; IP of endogenous eIF4A2 (and eIF4A1, rabbit IgG) from precleared HeLa cytoplasmic lysate; 20 mM Tris-HCl pH 7.5, 200 mM NaCl, 2.5 mM MgCl2, 0.5% Triton X-100, 4C; protein G Dynabeads; LC-MS/MS, emPAI).

binding, binds:
CNOT1 (from UniProt A5YKK6 1-2376)
CNOT7 (from UniProt Q9UIV1 1-285)
TNKS1BP1 (from UniProt Q9C0C2 1-1729)
TRIM32 (from UniProt Q13049 1-653)
